Measured values as given in doi:10.1101/2021.11.04.467353.
These are yes or no findings as the source states them, for the method shown. For some assays here: Binding seen in cells or lysates may run through a third protein. Some entries that bind do so weakly or less than the wild type.

Protein sequences, listed by entry. Tags and fused reporters are not part of them. Residues count along the entry.
UniProt A0JNW5, 1312-1464: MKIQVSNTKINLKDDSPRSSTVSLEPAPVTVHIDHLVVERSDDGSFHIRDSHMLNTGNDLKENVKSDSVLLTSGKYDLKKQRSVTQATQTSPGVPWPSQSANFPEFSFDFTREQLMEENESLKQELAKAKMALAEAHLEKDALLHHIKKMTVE
UniProt P63167, whole entry: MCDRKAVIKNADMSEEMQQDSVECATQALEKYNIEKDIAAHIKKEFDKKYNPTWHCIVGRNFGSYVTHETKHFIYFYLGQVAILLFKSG

Experiments:
[1] = biological target: MBP-SHIP164_(1312-1464) (human) (UniProt A0JNW5); test: SEC
[2] = biological target: MBP-SHIP164_(1312-1464) (human) (UniProt A0JNW5); test: pull-down

untagged LC8 (DYNLL1) (from UniProt P63167 1-89)
binding [1]: binds | binding [2]: binds
